Test results: patent US7230089
Results are given in words; binding and its absence hold for the method and conditions named. Some results given as binding are weak or reduced against the parent protein; the word gives no strength. Tags and fused reporters may be left off the sequences shown.

By UniProt entry, the sequences of proteins in these tests, tags left out. Where a name states a change or a piece, a line headed by the entry shows the natural chain unless it says otherwise.
UniProt P04386: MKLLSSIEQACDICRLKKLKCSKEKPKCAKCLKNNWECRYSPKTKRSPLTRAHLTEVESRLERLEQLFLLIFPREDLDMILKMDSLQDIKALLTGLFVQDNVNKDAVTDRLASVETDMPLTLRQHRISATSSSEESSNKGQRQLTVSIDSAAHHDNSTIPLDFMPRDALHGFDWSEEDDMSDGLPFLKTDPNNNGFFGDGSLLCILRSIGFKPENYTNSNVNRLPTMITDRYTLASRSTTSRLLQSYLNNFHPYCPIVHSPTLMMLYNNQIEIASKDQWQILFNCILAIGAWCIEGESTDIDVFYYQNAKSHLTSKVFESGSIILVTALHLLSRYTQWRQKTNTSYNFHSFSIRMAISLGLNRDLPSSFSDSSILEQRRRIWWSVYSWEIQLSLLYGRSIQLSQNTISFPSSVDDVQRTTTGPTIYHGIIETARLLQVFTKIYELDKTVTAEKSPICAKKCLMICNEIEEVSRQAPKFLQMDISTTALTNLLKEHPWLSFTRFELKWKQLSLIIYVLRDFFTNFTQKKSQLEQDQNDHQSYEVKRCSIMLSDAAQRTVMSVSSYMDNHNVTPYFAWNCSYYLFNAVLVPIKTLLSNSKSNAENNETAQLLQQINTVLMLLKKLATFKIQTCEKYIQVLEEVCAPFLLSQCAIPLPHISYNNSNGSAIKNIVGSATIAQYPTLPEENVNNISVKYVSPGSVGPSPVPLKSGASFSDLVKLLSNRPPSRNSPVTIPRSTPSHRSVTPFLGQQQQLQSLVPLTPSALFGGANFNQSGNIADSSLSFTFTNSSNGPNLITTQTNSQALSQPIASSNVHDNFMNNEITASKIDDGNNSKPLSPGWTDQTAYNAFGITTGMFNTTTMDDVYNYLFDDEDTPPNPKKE
UniProt P42751: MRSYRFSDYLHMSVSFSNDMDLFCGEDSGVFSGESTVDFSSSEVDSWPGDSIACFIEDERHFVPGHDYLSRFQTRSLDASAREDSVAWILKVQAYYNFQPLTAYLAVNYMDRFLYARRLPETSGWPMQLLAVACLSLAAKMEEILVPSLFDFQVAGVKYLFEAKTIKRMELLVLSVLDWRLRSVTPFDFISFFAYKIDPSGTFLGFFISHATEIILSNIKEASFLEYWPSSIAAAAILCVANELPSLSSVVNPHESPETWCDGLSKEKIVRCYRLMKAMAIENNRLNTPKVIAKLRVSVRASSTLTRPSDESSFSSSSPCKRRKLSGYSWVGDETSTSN

Tests used:
[1] = target: T1, GAL4-CycD1At fusion protein (Arabidopsis thaliana D-type cyclin D1, amino acids 1 to 334, fused to the GAL4 DNA binding domain; bait plasmid pGBT9CycD1At) (Arabidopsis thaliana) (UniProt P04386+P42751); experiment: yeast two-hybrid screen (growth on His- / 3-aminotriazole medium and beta-galactosidase activity), cyclin D1 as GAL4 DNA binding domain bait
[2] = target: T1, GAL4-CycD1At fusion protein (Arabidopsis thaliana D-type cyclin D1, amino acids 1 to 334, fused to the GAL4 DNA binding domain; bait plasmid pGBT9CycD1At) (Arabidopsis thaliana); experiment: yeast two-hybrid screen, cyclin D1 as bait

binding [1]	binding [2]	Binder
binds	binds	BRO4 (clone from the Arabidopsis thaliana cDNA / GAL4 activation domain fusion library, pACT BRO4) (protein, not shown: large carriers) MSERKRELAEEASSTSFSPLKKTKLNDSSDSSPDSHDVIVFAVSSSSVASSAALASDECSVTIGGEESDQSSSISSGCFTSESKEIAKNSSSFGVDLEDHQIETETETSTFITSNFRKETSPVSEGLGETTTEMESSSATKRKQPGVRKTPTAAEIEDLFSELESPDDKKKQFIEKYNFDIVNDEPLEGRYKWDRL
binds	binds	BRO3 (clone from the Arabidopsis thaliana cDNA / GAL4 activation domain fusion library, pACT BRO3) (protein, not shown: large carriers) MEEEVDLVESRIILSPCVQATNRGGIVARNSAGASETSVVIVRRRDSPPVEEQCQIEEEDSSVSCCSTSEEKSKRRIEFVDLEENNGDDRETETSWIYDDLNKSEESMNMDSSSVAVEDVESRRRLRKSLHETVKEAELEDFFQVAEKDLRNKLLECSMKYNFDFEKDEPLGGGRYEWVKLNP
binds	binds	BRO2 (clone from the Arabidopsis thaliana cDNA / GAL4 activation domain fusion library, pACT BRO2) (protein, not shown: large carriers) MDLELLQDLSKFNFPTPIKIRSKTSKTKKDEGDDDEDDLRCSTPTSQEHKIPAVVDSPPPPPRKPRPPPSAPSATAALMIRSCKRKLLVSTCEIIMNREEIDRFFSSVYNETSTTAKRRRSYPYCSRR
